{
  "source": "patent US6878713B2",
  "about": "“Generation triple-targeting, chiral, broad-spectrum antimicrobial 7-substituted piperidino-quinolone carboxylic acid derivatives, their preparation, compositions and use as medicaments” (Wockhardt Limited, priority 2001, dated 2005)",
  "origin": "cited, not measured here",
  "details": "cited from earlier work",
  "note": "At least one compound was matched to its structure with a doubt left.",
  "data": [
    {"smiles": "C[C@H]1COc2c(N3CCN(C)CC3)c(F)cc3c(=O)c(C(=O)O)cn1c23", "note": "[S-(−)-levofloxacin, reference compound]", "values": [
      {"measurement": "potency relative to the R-(+)-enantiomer", "value": "8-128 fold"}
    ]}
  ]
}
